This note sets out measurements from publication PMC10322693.

By UniProt entry, the sequences of proteins in these tests, tags left out.
UniProt Q9DBL9: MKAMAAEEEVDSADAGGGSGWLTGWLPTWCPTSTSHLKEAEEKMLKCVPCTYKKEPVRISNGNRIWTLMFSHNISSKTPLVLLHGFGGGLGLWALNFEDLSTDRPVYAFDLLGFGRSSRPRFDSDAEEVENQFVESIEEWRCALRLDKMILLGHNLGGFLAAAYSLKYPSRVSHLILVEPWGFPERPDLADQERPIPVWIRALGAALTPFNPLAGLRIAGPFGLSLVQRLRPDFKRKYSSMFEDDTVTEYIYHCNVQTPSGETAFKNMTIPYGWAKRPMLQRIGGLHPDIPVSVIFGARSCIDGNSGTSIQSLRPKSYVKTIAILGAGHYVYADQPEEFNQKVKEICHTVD

These are yes or no findings as the source states them, for the method shown. Binding seen in cells or lysates may run through a third protein. Some entries that bind do so weakly or less than the wild type. Sequences can lack the tags named with a protein.

In test [1] the target is T1, FLAG-PNPLA9 (mouse), overexpressed in HEK293T cells (mouse) (UniProt P97819).
T1 sequence: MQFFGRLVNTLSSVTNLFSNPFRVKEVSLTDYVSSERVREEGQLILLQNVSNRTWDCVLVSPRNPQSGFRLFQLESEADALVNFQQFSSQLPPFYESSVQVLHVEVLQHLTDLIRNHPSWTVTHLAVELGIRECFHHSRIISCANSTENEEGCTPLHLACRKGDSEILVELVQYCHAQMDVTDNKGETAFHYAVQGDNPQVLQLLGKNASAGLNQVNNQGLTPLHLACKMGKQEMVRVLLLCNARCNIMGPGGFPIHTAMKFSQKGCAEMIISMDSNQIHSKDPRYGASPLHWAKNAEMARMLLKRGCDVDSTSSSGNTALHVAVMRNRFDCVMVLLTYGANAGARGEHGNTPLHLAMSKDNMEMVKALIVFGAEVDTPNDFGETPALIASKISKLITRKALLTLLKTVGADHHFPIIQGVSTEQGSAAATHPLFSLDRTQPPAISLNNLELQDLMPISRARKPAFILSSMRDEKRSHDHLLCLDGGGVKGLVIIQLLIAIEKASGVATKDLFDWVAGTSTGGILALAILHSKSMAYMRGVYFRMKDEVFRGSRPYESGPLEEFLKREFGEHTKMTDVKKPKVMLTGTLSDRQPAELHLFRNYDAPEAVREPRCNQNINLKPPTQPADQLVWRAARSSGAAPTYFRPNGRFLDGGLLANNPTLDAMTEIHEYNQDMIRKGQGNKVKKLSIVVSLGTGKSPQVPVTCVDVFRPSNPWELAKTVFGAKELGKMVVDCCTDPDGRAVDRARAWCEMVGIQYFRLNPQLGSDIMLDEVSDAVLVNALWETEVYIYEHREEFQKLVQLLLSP
The experiment in a line: co-IP; HEK293T cells coexpressing His-CGI58 and FLAG-PNPLA2 or FLAG-PNPLA9; lysate in 100 mM NaCl, 50 mM Tris-HCl pH 7.2, 1% Triton X-100, 2 mM β-mercaptoethanol; IP with anti-FLAG overnight at 4°C, WB with anti-His.

Test [2] addresses T2, FLAG-PNPLA2 (mouse), overexpressed in HEK293T cells (mouse) (UniProt Q8BJ56).
T2 sequence: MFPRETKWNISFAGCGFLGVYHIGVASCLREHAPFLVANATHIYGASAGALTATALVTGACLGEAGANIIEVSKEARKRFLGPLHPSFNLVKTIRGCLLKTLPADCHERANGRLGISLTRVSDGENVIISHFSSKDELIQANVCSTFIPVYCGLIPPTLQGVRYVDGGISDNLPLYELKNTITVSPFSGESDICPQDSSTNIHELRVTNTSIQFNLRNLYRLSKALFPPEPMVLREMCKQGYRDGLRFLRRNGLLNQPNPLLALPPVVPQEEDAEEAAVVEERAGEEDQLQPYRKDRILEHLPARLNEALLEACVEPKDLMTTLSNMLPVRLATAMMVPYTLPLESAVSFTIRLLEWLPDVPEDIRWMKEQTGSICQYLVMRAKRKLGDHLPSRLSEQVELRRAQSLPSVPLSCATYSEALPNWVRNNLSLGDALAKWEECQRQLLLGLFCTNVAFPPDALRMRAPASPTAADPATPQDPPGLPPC
The test is described as above.

Turning to “His-CGI58 (mouse), overexpressed in HEK293T cells (from UniProt Q9DBL9 1-351)”, the binding result in test [1] and in test [2] was “binds” throughout.
